Reference: PMC6831465
Results are given in words; binding and its absence hold for the method and conditions named. Binding seen in cells or lysates may run through a third protein.

Protein sequences, listed by entry. Tags and fused reporters are not part of them.
UniProt P40763: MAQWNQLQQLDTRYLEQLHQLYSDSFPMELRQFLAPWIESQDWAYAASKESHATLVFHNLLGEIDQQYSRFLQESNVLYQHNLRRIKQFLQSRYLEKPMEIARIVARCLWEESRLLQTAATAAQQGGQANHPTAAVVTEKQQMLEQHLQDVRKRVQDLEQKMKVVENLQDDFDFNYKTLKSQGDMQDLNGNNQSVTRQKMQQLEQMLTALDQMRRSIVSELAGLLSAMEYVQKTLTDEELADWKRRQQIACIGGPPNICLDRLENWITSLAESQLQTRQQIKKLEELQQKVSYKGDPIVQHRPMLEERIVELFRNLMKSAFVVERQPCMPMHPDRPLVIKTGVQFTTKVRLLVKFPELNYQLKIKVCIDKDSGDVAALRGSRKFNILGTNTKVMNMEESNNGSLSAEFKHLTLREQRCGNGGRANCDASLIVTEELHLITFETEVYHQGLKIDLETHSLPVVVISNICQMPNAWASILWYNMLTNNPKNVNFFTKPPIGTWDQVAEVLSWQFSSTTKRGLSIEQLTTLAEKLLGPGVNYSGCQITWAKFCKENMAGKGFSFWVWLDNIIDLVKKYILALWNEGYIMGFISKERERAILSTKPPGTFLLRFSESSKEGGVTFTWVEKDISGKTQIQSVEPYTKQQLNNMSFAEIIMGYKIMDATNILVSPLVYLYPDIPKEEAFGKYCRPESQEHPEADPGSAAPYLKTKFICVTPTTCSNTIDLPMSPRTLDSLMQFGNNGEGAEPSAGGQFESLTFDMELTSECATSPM
UniProt P31270: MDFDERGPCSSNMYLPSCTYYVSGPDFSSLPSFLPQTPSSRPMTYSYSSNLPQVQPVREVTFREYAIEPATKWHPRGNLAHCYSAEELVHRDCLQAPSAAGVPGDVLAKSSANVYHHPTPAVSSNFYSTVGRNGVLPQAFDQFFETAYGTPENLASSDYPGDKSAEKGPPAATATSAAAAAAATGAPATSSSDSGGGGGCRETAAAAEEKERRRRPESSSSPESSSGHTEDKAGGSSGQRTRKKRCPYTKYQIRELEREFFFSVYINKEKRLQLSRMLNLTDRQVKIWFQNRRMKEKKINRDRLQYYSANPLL

Biological target: Stat3 (human (endogenous in NCI-N87 and SGC-7901)) (UniProt P40763)
Experiment: co-IP; reciprocal co-IP with anti-Stat3 and anti-Flag antibodies coupled to resin (Pierce Co-Immunoprecipitation Kit); 1 mg lysate of NCI-N87-flag-HOXA11 or SGC-7901-flag-HOXA11 cells in IP Lysis/Wash Buffer, overnight at 4 °C; western blot detection

binding: no binding
Substance: Homeobox A11 (HOXA11), flag-tagged (from UniProt P31270 1-313)
